Where a chain is given by its changes, count along the chain named. No constants are given. Whether binding was seen depends on the method and setting. A result given as binding can be weak or reduced; the word gives no strength.
B1: anti-CD112R antibody CHA.7.518 (antibody, V domains shown)
VH: QVQLVQSGAEVKKPGASVKVSCKASGYTFTDYNINWVRQAPGQGLEWMGYIYPYIGGSGYAQKFQGRVTMTRDTSTSTVYMELSSLRSEDTAVYYCAREDKTARNAMDYWGQGTLVTVSS
VL: DIQMTQSPSSLSASVGDRVTITCRVSENIYSNLAWYQQKPGKAPKLLIYEATNLAEGVPSRFSGSGSGTDFTLTISSLQPEDFATYYCQHFWGTPYTFGQGTKLEIKR
B2: C11 (antibody, human IgG1, kappa, V domains shown)
VH: EVQLQQSGPELVKPGASVKISCKASGYTFTDYFMNWVRQSHGKSLEWIGDIHPNNGSPNYNQKFKGKATLTVGKSSSTAYMELRSLTSEDSAVYYCATGYFDVWGTGTTVTVSS
VL: DIVMTQSPSSLSVSAGEKVTMSCKSSQSLLNSGNQKNYLAWYQQKPGQPPKLLIYGASTRESGVPDRFTGSGSGTDFTLTISSVQAEDLAVYYCQNDHSYPWTFGGGTKLEIKR
B3: C12 (antibody, human IgG1, kappa, V domains shown)
VH: EVQLVASGGGLVKPGGSLKLSCAASGFTFSDYYMYWVRQTPEKRLEWVATISDGGGYTYYPDSVKGRFTISRDNDRNSLYLQMSSLKSEDTAMYYCGREDLWGQGTSVTVSS
VL: DIQMTQSPSSLSASLGERVSLTCRASQDIGSSLNWLQQEPDGTVKRLIYATSRLDSGVPKRFSGSRSGSDYSLTISSLESEDFVDYYCLQYASFPYTFGGGTKLEIKR
B4: C13 (antibody, human IgG1, kappa, V domains shown)
VH: B2 VH with R38K, H52N, K67R, G73D, T98S
VL: B2 VL with N34T
B5: C14 (antibody, human IgG1, kappa, V domains shown)
VH: QVQLQQPGAELVRPGTSVKLSCKASGNTFTSYWMHWVKQRPGQGHEWIGVIDASDSNTKYNQKFKGKATLTVDTSSSTAYMQLSSLTSEDSAVYYCARYYSGSSYGLDYWGQGTTLTVSS
VL: DIQMTQTASSLSASLGDRVTISCRASQDISNYLNWYQQKPDGTVKLLIYYTSRLHSGVPSRFSGSGSGTDFSLTITHLEQEDIASYFCQQGNMFPPTFGGGTKLEIKR
B6: C24 (antibody, human IgG1, kappa, V domains shown)
VH: QVQLKQSGPGLVQPSQNLSITCTVSGFSLTGYGINWVRQSPGKGLEWLGVIWSGGNTEYNAAFRSRLSISKDTSKSQVFLKMNSLQADDTAIYSCARDSTGLYAMDYWGPGTSVTVSS
VL: DLQMTQTTSSLSASLGDRVTISCRTSQDISNFLNWYQQKPDGPLKLLIYYTSRLHSGVPSRFSGSGSGTDYSLTISNLEQEDIATYFCQQGYMLPPTFGGGTKLEIKR
B7: C31 (antibody, human IgG1, kappa, V domains shown)
VH: QIQLQQSGPELVKPGASVKISCKASGYTFTDYYIAWVKQRPGQGLEWIGWIYLGSGHTMYNENFKGKATLTVDTSSSTAYMQLSSLTSEDSAVYFCARDSFYAMDYWGQGTSVTVSS
VL: DIVMTQSQKFMSTTVGDRVSITCKASQNVGTAVAWYQQKPGQSPKLLIYSASNRYTGVPDRFTGSGSGTDFTLTISNMQSEDLADYFCQQYSTYLTFGAGTKLELKR
B8: C36 (antibody, human IgG1, kappa, V domains shown)
VH: QIQLVQSGPELKKPGETVKISCKASGYTFTTYGMSWVKQAPGKGLKWMGWINTYSGVPTYADDFKGRFAFSLETSASNAYLQINNLKNEDTATYFCARELPFTTIIGTKDYWGQGTTLTVSS
VL: DIVLIQSPATLSVTPGDSVSLSCRASQFISNNLHWYQQKSHESPRLLIKYASQSISGIPSRFSGGGSGTDFTLTVNSVETEDFGMYFCQQSNSWPHTFGGGTKLEIKR
B9: C39 (antibody, human IgG1, kappa, V domains shown)
VH: QAYLQQSGAELVRPGASVKMSCKASGYTFTSYNIHWVKQTPRQGLEWIGAIYPGNADISYNQKFRDKATLTVDKSSSTAYMQLSSLTSEDSAVYFCAKPLRIYAMDCWGQGTSVTVSS
VL: DIVMTQSQKFMSTSVGDRVSVTCKASQNVGTNVAWYQQKPGQSPKALIYSASYRYSGVPDRFTGSGSGTDFTLTISNVQSEDLADYFCQQYNSRPLTFGGGTKLEIKR
B10: C41 (antibody, human IgG1, kappa, V domains shown)
VH: EVQLQQSGPELVKPGASVKISCKASGNTFTDYYINWVKQSHGKSLEWIGDIEPNNGGTNYNQKFKGKATLTVDKSSSTAYMELRSLTSEDSAIYYCATLYFDYWGQGTTLTVSS
VL: B2 VL with W102F, G106S
B11: C43 (antibody, human IgG1, kappa, V domains shown)
VH: B5 VH with S31T
VL: B5 VL with F71Y, H77N
B12: C44 (antibody, human IgG1, kappa, V domains shown)
VH: QVQLQQSGPELMKPGASLKISCKASGYTFTDSYINWVKQRPGQGLEWIGWIFPGSGSTYYNEKFKGTATLTVDKSSSTAYMLLSSLTSEDSAAYFCARDGGLRGPFDYWGQGTTLTVSS
VL: DIQMTQSPSSLSASLGGKVTITCKASQDINKYIAWYQHKPGKGPRLLIHYTSTLQSGIPSRFSGSGSGRDYFFSISNLESEDIATYYCLQYDHLLTFGGGTKLEIKR

The chains behind the UniProt entries cited, without tags or fusion partners. Where a name states a change or a piece, a line headed by the entry shows the natural chain unless it says otherwise.
UniProt Q6DKI7: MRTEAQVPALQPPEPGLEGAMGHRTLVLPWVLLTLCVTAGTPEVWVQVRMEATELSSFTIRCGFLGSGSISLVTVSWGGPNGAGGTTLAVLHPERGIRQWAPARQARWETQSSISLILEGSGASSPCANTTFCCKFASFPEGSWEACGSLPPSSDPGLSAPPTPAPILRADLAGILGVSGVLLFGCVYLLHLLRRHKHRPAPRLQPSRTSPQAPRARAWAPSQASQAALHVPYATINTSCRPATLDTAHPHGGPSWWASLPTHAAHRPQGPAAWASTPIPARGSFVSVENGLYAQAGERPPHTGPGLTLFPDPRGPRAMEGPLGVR

Target: human CD112R antigen protein huCD112R-His (Acro Biosysterm, PVG-H52H4) (human) (UniProt Q6DKI7)
Assay: ELISA, CD112R-His coated on plate

binding, binds:
B1

Target: human CD112R antigen protein huCD112R-His (Acro Biosysterm, PVG-H52H4) (human) (UniProt Q6DKI7)
Assay: ELISA, huCD112R-His coated on plate

binding, binds:
B2
B3
B4
B5
B6
B7
B8
B9
B10
B11
B12

Target: monkey antigen protein (monkey CD112R, Uniprot ID: A0A2K5WVV8) (monkey)
Assay: ELISA, monkey antigen protein

binding, binds:
B2
B3
B4
B5
B6
B7
B8
B9
B10
B11
B12
